In US20100152298A1, “Present invention relates to a treatment for the management of cancer more specially the use of Flutamide anti-androgen drugsa” (UNIVERSITY OF KUWAIT, priority 2008, published 2010):
At least one compound was matched to its structure with a doubt left.

Tests used:
Assay type in all cases: cell-based
[1] = tested on: androgen-independent prostate cancer PC-3 cells; assay: Growth, proliferation and viability of PC-3 cells treated with flutamide
PC-3 cells [2] = assay: Cell cycle S phase of PC-3 cells after exposure to flutamide
PC-3 cells [3] = assay: [Methyl]-choline incorporation into PC-3 cells treated with flutamide
[4] = after the treatment of PC-3 cells with flutamide

Structure (SMILES): CC(C)C(=O)Nc1ccc([N+](=O)[O-])c(C(F)(F)F)c1 [flutamide, Flutamide]
- killing of androgen-independent prostate cancer PC-3 cells ([1]; PC-3 cells): killed
- cell viability [1, 4]: decrease in cell viability
- PC-3 cells proliferation ([1]; flutamide for 3 days): inhibited
- cells in S phase (PC-3 cells [2]; PC-3 cells, 10 nM, 3 days): build up of cells in S phase
- cells in the S phase of the cell cycle (PC-3 cells [2]; [4]): accumulation of cells in the S phase
- [Methyl-^3C]-choline incorporation per a cell (PC-3 cells [3]; PC-3 cells, treated compared to untreated cells): decreased
- uptake of choline in cancer cells (PC-3 cells [3]; as the concentration of the drug increases): significant reduced uptake
